Some of the results follow.

The chains behind the UniProt entries cited, without tags or fusion partners.
UniProt Q0JBA9, entry or part of it: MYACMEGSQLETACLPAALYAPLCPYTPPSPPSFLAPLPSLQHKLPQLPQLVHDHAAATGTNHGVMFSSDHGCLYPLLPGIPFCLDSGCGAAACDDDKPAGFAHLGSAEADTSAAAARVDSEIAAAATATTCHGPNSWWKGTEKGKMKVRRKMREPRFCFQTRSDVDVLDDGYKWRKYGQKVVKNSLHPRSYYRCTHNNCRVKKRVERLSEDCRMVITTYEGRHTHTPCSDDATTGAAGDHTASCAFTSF

In this assay the target is OsWRKY34 (Oryza sativa, UniProt Q0JBA9 1-250). The assay is described as follows: protein-binding microarray (RPBM); PBS, 2% BSA, 51.3 ng/ul salmon testes DNA, 50 uM zinc acetate, 200 nM TF, 25 C, 1 h; high values mean tight binding. The note with it: protein: recombinant; tags: N-terminal polyhistidine and DsRed monomer fusion (pET32a); label: CyDye5-dUTP incorporated in the synthesized complementary strand; 3' TTTTT single-stranded linker to array surface; dsDNA, one strand shown. Summed up:
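The binding signal is fluorescence intensity per array feature (arbitrary units). Readings came from an Axon 4000B scanner after a washed, 2% BSA-blocked, double-stranded custom Agilent array had been incubated for 1 h at 25 °C with 200 nM protein and 50 µM zinc acetate. The protein was a Ni–NTA-purified transcription factor fused N-terminally to polyhistidine and DsRed, expressed in E. coli BL21-CodonPlus.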
As for “ATCGCAGCCCAATCCTCATTCCTCCACGGGTCCATCCTATCGGAGTCACCTAGTGCAG”, the binding signal was 8670 fluorescence intensity (a.u.).

Take “GTATTTTGTGCCAATTGACTTCTTGTTAGTTTATTATAATCGGAGTCACCTAGTGCAG”: the binding signal is 11500 fluorescence intensity (a.u.).

Turning to “GCGATCTTTAGTCCCGGATTGGTACTCCCGGTTTGGAAACCGGAGTCACCTAGTGCAG”, the binding signal is 8920 fluorescence intensity (a.u.).

Take “GCATAGATTTTTAGAGGTTTTTTGTGGAATCATCTTTTGTCGGAGTCACCTAGTGCAG”: the binding signal was 9230 fluorescence intensity (a.u.).

With “CCGACCGTTTTCATCCCGACTCCATCCAATCCGCTAGTTGCGGAGTCACCTAGTGCAG”, the binding signal was 8920 fluorescence intensity (a.u.).

Regarding “CGTTGACTTTTTAAAATATATTTGACCGTTCGTCTTATTCCGGAGTCACCTAGTGCAG”, the binding signal was 24100 fluorescence intensity (a.u.).

As to “TGACATGTGGGGTTCTAGGAATAGGCGTGTATCTAACAAGCGGAGTCACCTAGTGCAG”, the binding signal is 9320 fluorescence intensity (a.u.).

“GCAGTGACTTCCACTTCCTGTACGTAACTTTCCATATGCCCGGAGTCACCTAGTGCAG”: the binding signal is 10000 fluorescence intensity (a.u.).

In the case of “TTTCCACACGTCGCGATCCCTCACCCAACCATGCAAAAGTCGGAGTCACCTAGTGCAG”, the binding signal was 12600 fluorescence intensity (a.u.).

With “GAACGGAGGCGCTTTATACTTCTCTTCGCCTTGTCAAATTCGGAGTCACCTAGTGCAG”, the binding signal is 9770 fluorescence intensity (a.u.).

For “TCTTGGTCAAATTTGTTCTTCATCTTTGATCAATTCAGTTCGGAGTCACCTAGTGCAG”, the binding signal is 11900 fluorescence intensity (a.u.).

As for “ATGGTGGGTGCATCACTGCTGGTCTTGGTTTCGTCAGCGCCGGAGTCACCTAGTGCAG”, the binding signal was 11500 fluorescence intensity (a.u.).

As to “ATCATCTCCTCTCGGTCCATCACAACACCTCCGCCTCCCACGGAGTCACCTAGTGCAG”, the binding signal is 8080 fluorescence intensity (a.u.).

Take “GCCCTGCGTCACACGGCATTCTTGTCCCGTATCCGCGCCCCGGAGTCACCTAGTGCAG”: the binding signal is 8430 fluorescence intensity (a.u.).

For “GCACTCTGCATCCGCTATACATTATTGTTCTGCTTTACTCCGGAGTCACCTAGTGCAG”, the binding signal was 10100 fluorescence intensity (a.u.).

For “TTTTTTCTCCGGCTTATATGGATAGTATCGATTCCCCTGTCGGAGTCACCTAGTGCAG”, the binding signal is 9310 fluorescence intensity (a.u.).

As for “CCTCTGGTTGTCGGAGCCTCATCAATCTCACTCATTCTCACGGAGTCACCTAGTGCAG”, the binding signal was 9280 fluorescence intensity (a.u.).

As for “GCTGATGAAACTGATCCATACCGTACCGTACCATTGCCAACGGAGTCACCTAGTGCAG”, the binding signal is 10100 fluorescence intensity (a.u.).

In the case of “CGGTTTCGTTTGAGATTTTTTTTTGGTGGTTTTGATTTCGCGGAGTCACCTAGTGCAG”, the binding signal is 8640 fluorescence intensity (a.u.).

For “GGGTGGCGTCCTGTTGTCATCTTTTATCCCTCTTGAATTCCGGAGTCACCTAGTGCAG”, the binding signal is 21500 fluorescence intensity (a.u.).

For “ACGGGGCGCATTTATTCATCCCCACCTTTGTTCATCAGTTCGGAGTCACCTAGTGCAG”, the binding signal was 11600 fluorescence intensity (a.u.).

Turning to “AGGGAGAGGATTCCCGGCGAGCCGGCGGGCGGGCGGGATACGGAGTCACCTAGTGCAG”, the binding signal was 10300 fluorescence intensity (a.u.).

On to “GCCCTTCCTCTCCTCACTCACACTGCCCTGTTCATCTCTTCGGAGTCACCTAGTGCAG”, for which the binding signal is 8540 fluorescence intensity (a.u.).

Take “CCTACGTGTGAAATCAACCACTCTTATCCCATCCGTCCATCGGAGTCACCTAGTGCAG”: the binding signal was 8990 fluorescence intensity (a.u.).

Take “ATATATGCAGAGGCATGATGCCTGCTGGGCACTCTCTGAACGGAGTCACCTAGTGCAG”: the binding signal is 8690 fluorescence intensity (a.u.).

Take “CATTGTTTTCTAATATTCGGCCATGGCTTTTGACATTTTACGGAGTCACCTAGTGCAG”: the binding signal was 8430 fluorescence intensity (a.u.).

On to “ATACTACCTGAGTACAGGGTGGGGTGCTGTTGCTGCGTGCCGGAGTCACCTAGTGCAG”, for which the binding signal was 9150 fluorescence intensity (a.u.).

For “GTACATTCACGTTCCGCCCAACTACCCCTTGTTTGAACCTCGGAGTCACCTAGTGCAG”, the binding signal is 9650 fluorescence intensity (a.u.).

As to “CATCTCTATTCTTAAACCCCGTTCATGTAGTTCACAACATCGGAGTCACCTAGTGCAG”, the binding signal was 10200 fluorescence intensity (a.u.).

As for “GCAACATCACCGTTTTTCTCTACTATCTTAGGTTGTGTTCCGGAGTCACCTAGTGCAG”, the binding signal was 8670 fluorescence intensity (a.u.).

Turning to “TAACAAATATCGTGTGTTTCTGTATCGTCATCTGCTGTATCGGAGTCACCTAGTGCAG”, the binding signal was 8120 fluorescence intensity (a.u.).

For “AGTGTAAAGCTTAGTTTAAGGGGTTTTATTTATTCCGATACGGAGTCACCTAGTGCAG”, the binding signal is 8490 fluorescence intensity (a.u.).

For the sequence “CCGCGTCCTCCCTTTGCCTTTGCCGCTATCCTCTCGGTCGCGGAGTCACCTAGTGCAG”, the binding signal was 8700 fluorescence intensity (a.u.).

“TTCCACTTGATTTCGTGAAATTTCGAATTTCACCGGTGCTCGGAGTCACCTAGTGCAG”: the binding signal is 8310 fluorescence intensity (a.u.).

As to “TATATATATATGTGGTGGGTTTTATCAAGATTCTTCCATTCGGAGTCACCTAGTGCAG”, the binding signal is 9470 fluorescence intensity (a.u.).

On to “ACAAACTTCTGACTTTTTTATCACAACGTTCCAATTTCAACGGAGTCACCTAGTGCAG”, for which the binding signal was 9580 fluorescence intensity (a.u.).

With “AGCATTTAGTCACCAGCGCTTTGGATGCTTTACCTCTTTACGGAGTCACCTAGTGCAG”, the binding signal is 11600 fluorescence intensity (a.u.).

In the case of “TGACGTTTGCTCTGACGCGTTTTTCTGTAGTTATTATCACCGGAGTCACCTAGTGCAG”, the binding signal is 10100 fluorescence intensity (a.u.).

As to “TTTTCGCAGCCTTAGGTTTACGTTCAGTATTTTGTATTGCCGGAGTCACCTAGTGCAG”, the binding signal is 9680 fluorescence intensity (a.u.).

Turning to “GTTTTTCCACCGGTTTTTCATCTGCGCGCCGTACCTCTGCCGGAGTCACCTAGTGCAG”, the binding signal was 9300 fluorescence intensity (a.u.).

Consider “CCGTAGTAGCCTTGTTAGCTAAGCAAAAGCCCACGCGCGACGGAGTCACCTAGTGCAG”, for which the binding signal was 8340 fluorescence intensity (a.u.).

For “CACAGCCGCCTACCTTGCTCCAATATATAAGAACTTGAAACGGAGTCACCTAGTGCAG”, the binding signal is 9600 fluorescence intensity (a.u.).

For the origin of these results see publication PMC7819943, “Rice protein-binding microarrays: a tool to detect cis-acting elements near promoter regions in rice”.
